PubChem BioAssay AID1259254 | NCATS – 2017
Aim: 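Genome-wide screen for genes that prevent DNA re-replication in cancer cells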 (primary screen). Cells: human HCT116 colorectal cancer cells. Reagent: single siRNA against human genes. Duration: 3 days. Detection: 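Nuclei stained with Hoechst and imaged; cell-cycle phase assigned by DNA content; G2 share scaled per plate, non-targeting siRNA 0%, GMNN siRNA 100%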. Reading the numbers: G2 robust z-score and G2 cells, % of GMNN control: higher = more G2 cells, more excess DNA replication; raw share of cells in G2: higher = larger share of cells with G2 DNA content. Active means: 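An siRNA counts as active if its G2 robust z-score lies at least 5 MADs above the screen median; here such calls match roughly 38% of GMNN control or more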.
Shown is one part, drawn at random, of about 59,000 deposited reagents. About 1,550 of all reagents (2.6%) were called active. 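G2 share is only a proxy for re-replication; each gene was hit by three separate siRNAs, and active genes were retested.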 The raw values are shown without normalisation. A number with no mark means an inactive call. Reagents against one gene are numbered here. No sequences are given here. Not given: the amount of reagent.

The first 2 entries, to show the layout:
| gene | reagent | G2 robust z-score | G2 cells, % of GMNN control | raw share of cells in G2 (%) |
| --- | --- | --- | --- | --- |
| PRAMEF2 | 1 | 0.2 | 4.37 | 6.48 |
| PRAMEF2 | 2 | -0.885 | -3.26 | 3.15 |

Results, from the start:
| gene | reagent | G2 robust z-score | G2 cells, % of GMNN control | raw share of cells in G2 (%) |
| --- | --- | --- | --- | --- |
| PRAMEF2 | 1 | 0.2 | 4.37 | 6.48 |
| PRAMEF2 | 2 | -0.885 | -3.26 | 3.15 |
| PRAMEF2 | 3 | -1.24 | -5.76 | 1.18 |
| FXR2 | 1 | 1.42 | 12.9 | 7.62 |
| FXR2 | 2 | 1.92 | 16.5 | 11.4 |
| FXR2 | 3 | 0.22 | 4.52 | 6.91 |
| ZNF804B | 1 | -0.806 | -2.71 | 2.6 |
| ZNF804B | 2 | -0.854 | -3.04 | 2.09 |
| ZNF804B | 3 | -0.56 | -0.972 | 2.88 |
| ASIC4 | 1 | -0.445 | -0.161 | 5.23 |
| ASIC4 | 2 | 5.8 (active) | 43.8 | 19.6 |
| ASIC4 | 3 | 0.319 | 5.21 | 6.41 |
| LINC00960 | 1 | 0.426 | 5.97 | 5.98 |
| LINC00960 | 2 | 2.8 | 22.7 | 12.5 |
| LINC00960 | 3 | -1.03 | -4.29 | 3.01 |
| IQCF5 | 1 | -0.598 | -1.24 | 4.1 |
| IQCF5 | 2 | -0.393 | 0.202 | 3.84 |
| IQCF5 | 3 | -0.565 | -1.01 | 2.97 |
| LINC01249 | 1 | 1.82 | 15.7 | 9.56 |
| LINC01249 | 2 | 0.345 | 5.39 | 5.59 |
| LINC01249 | 3 | 0.693 | 7.84 | 5.64 |
| MYO18B | 1 | -1.4 | -6.9 | 2.23 |
| MYO18B | 2 | -0.0899 | 2.33 | 5.04 |
| MYO18B | 3 | -0.304 | 0.826 | 5.77 |
| RPL41 | 1 | 4.81 | 36.8 | 20.6 |
| RPL41 | 2 | 5 | 38.1 | 19.3 |
| RPL41 | 3 | 1.29 | 12.1 | 7.71 |
| CYTH4 | 1 | -1.18 | -5.33 | 1.82 |
| CYTH4 | 2 | -0.568 | -1.03 | 4.16 |
| CYTH4 | 3 | -0.689 | -1.88 | 2.66 |
